Drawing on publication PMC8558330, this text covers binding for one substance.

The target of this test is T1, VmD6PKL2 (D6 PROTEIN KINASE LIKE 2 of V. montana), two-hybrid bait PGBKT7-VmD6PKL2 (Vernicia montana).
T1 sequence: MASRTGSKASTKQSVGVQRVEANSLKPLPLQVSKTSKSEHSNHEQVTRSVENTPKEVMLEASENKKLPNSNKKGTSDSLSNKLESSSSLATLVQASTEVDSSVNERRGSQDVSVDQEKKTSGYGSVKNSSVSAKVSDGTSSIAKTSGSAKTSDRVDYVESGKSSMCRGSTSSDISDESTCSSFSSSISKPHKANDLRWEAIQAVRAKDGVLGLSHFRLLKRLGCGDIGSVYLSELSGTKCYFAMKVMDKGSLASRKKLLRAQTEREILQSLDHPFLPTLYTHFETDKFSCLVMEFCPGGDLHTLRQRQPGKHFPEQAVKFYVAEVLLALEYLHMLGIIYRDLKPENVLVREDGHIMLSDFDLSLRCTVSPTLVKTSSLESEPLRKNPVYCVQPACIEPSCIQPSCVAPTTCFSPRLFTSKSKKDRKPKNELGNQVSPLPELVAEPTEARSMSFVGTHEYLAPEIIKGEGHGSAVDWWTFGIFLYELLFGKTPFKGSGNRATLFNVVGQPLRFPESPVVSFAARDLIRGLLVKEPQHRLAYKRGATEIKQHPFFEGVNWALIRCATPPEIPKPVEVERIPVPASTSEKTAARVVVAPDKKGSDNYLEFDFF
The test is described as follows: two-hybrid; Gal4 system; bait PGBKT7-VmD6PKL2 in Y2HGold mated with PGADT7-cDNA library of Fof-1-infected V. montana root in Y187; SD/-Trp-Leu-His/X-α-Gal/AbA, then SD/-Ade-Trp-Leu-His/X-α-Gal/AbA; prey plasmids retransfected for one-to-one-interaction screening.

No constants are given. Whether binding was seen depends on the method and setting. A result given as binding can be weak or reduced; the word gives no strength.

With “VmABCI15 (ATP-binding cassette I15), two-hybrid prey from the V. montana root cDNA library (Vernicia montana)”, the binding entry is on record as “binds”.
